# Experiment: Cyclodextrin (CD) interaction of perfume components
# Type: physicochemical
# Settings: perfume component versus cyclodextrin; words weak / significant / strong
row,Compound,CD interaction
1,CC1COCc2cc3c(cc21)C(C)(C)C(C)C3(C)C (stereo not shown) [Galaxolide],weak
2,CC(=O)OC1CC2CC1C1CC=CC21 (stereo not shown) [Flor Acetate],strong
3,CC(C)(O)CCCC1=CCC(C=O)CC1 (stereo not shown) [Lyral],weak
4,CCCCCCOC(=O)c1ccccc1O [Hexyl Salicylate],weak
5,CCCCCCC(C=O)=Cc1ccccc1 [Hexyl cinnamic Aldehyde],weak
6,a-Me Ionone,strong
7,CC(=O)OC(C)(C)C1CC=C(C)CC1 (stereo not shown) [Terpinyl Acetate],significant
8,O=C(Cc1ccccc1)OCCc1ccccc1 [Phenyl-Ethyl-Phenyl Acetate],weak
9,CC(=O)C(C)=C(C)C(C)C(C)(C)C (stereo not shown) [Koavone],strong
10,CC(C=O)Cc1ccc(C(C)C)cc1 (stereo not shown) [Cymal],strong
11,"CC(C=O)Cc1ccc(C(C)(C)C)cc1 (stereo not shown) [Lilial, p-t-bucinal]",strong
12,CCC(C)(O)CCCC(C)C (stereo not shown) [Tetrahydrolinalol],significant
13,CC(=O)C1(C)CC2=C(CCCC2(C)C)CC1C (stereo not shown) [Iso-E Super],weak
14,CCOC(=O)c1ccccc1C(=O)OCC [Diethyl Phthalate],weak
15,CCC(=O)OC1CC2CC1C1CC=CC21 (stereo not shown) [Frutene],strong
16,CC(=O)/C=C/C1C(C)=CCCC1(C)C (stereo not shown) [a-ionone],strong
17,"CC(=O)OC1CCC(C(C)(C)C)CC1 (stereo not shown) [Vertenex, para-tert-butylcyclohexyl acetate]",strong
18,CCCCCCCCCCCCCC(=O)OC(C)C [Iso-propyl Myristate],weak
19,CCCCCC1C(=O)CCC1CC(=O)OC (stereo not shown) [Methyl Dihydro Jasmonate],weak

# From patent US6767507B1, “Uncomplexed cyclodextrin compositions for odor control” (The Procter & Gamble Company, priority 1998, dated 2004)
